Measurements taken from patent US10035790B2, “RORγ modulators” (BRISTOL-MYERS SQUIBB COMPANY, priority 2012, dated 2018).
The match of structure and compound is tentative.

Protein sequences, listed by entry. Tags and fused reporters are not part of them. Residues count along the entry.
UniProt P51449, 262-507 limits assumed: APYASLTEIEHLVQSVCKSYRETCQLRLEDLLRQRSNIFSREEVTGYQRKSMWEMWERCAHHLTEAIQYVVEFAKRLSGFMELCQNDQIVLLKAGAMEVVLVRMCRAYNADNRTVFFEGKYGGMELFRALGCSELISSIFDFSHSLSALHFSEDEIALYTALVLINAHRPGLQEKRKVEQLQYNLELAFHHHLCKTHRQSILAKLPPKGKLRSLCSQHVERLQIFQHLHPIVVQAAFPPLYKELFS

Biological target: ligand binding domain of human RORγ (A262-S507) (Homo sapiens, UniProt P51449)
Test: General RORγ SPA binding assay (competition with [3H]25-hydroxycholesterol)
Settings: inhibition of [3H]25-hydroxycholesterol binding

| Compound | IC50 [nM] |
| --- | --- |
| Cc1nc(C)c(-c2nnc(-c3ccnc(C(F)(F)F)c3)o2)c(C2CCN(C(=O)Cc3c(F)cccc3F)CC2)n1 | 110 |
| Cc1nc(C)c(-c2nnc(-c3ccccc3)o2)c(C2CCN(C(=O)Cc3c(F)cccc3F)CC2)n1 | 161 |
| Cc1nc(C)c(-c2nnc(Cc3cccc(C(F)(F)F)c3)o2)c(C2CCN(C(=O)Cc3c(F)cccc3F)CC2)n1 | 218 |
| Cc1nc(C)c(-c2nnc(-c3cccc(Cl)c3)o2)c(C2CCN(C(=O)Cc3c(F)cccc3F)CC2)n1 | 18.9 |
| Cc1nc(C)c(-c2nnc(-c3ccnc(C(C)C)n3)o2)c(C2CCN(C(=O)Cc3c(F)cccc3F)CC2)n1 | 201 |
| Cc1nc(C)c(-c2nnc(-c3cccc(C(F)(F)F)c3)o2)c(C2CCN(C(=O)Cc3c(F)cccc3F)CC2)n1 | 19.4 |
| Cc1cc(-c2nnc(-c3c(C)nc(C)nc3C3CCN(C(=O)Cc4c(F)cccc4F)CC3)o2)nc(C(F)(F)F)n1 | 6.9 |
| Cc1cc(C)cc(-c2nnc(-c3c(C)nc(C)nc3C3CCN(C(=O)Cc4c(F)cccc4F)CC3)o2)c1 | 26.3 |
| Cc1nc(C)c(-c2nnc(-c3ccccc3Cl)o2)c(C2CCN(C(=O)Cc3c(F)cccc3F)CC2)n1 | 102 |
| Cc1nc(C)c(-c2nnc(-c3cccc(OC(F)(F)F)c3)o2)c(C2CCN(C(=O)Cc3c(F)cccc3F)CC2)n1 | 15.5 |
